{"source": "PubChem BioAssay AID540256", "about": "(National Center for Advancing Translational Sciences (NCATS), 2011)", "note": "Among all 300,000 compounds or so, about 3,700 (1.2%) were called active. This list was built around the results that the source calls inconclusive (neither active nor inactive); the mix of calls is not that of the screen. Calls follow the shape of the full dose curve; tested in HEK293 cells. Potencies beside an inconclusive call are fits to weak or partial responses and may not hold up. % is scaled to controls: 0 for no effect and ±100 for the full control effect; potency is read from the fitted curve at half-maximal effect.", "data": [{"assay": "qHTS for Inhibitors of binding or entry into cells for Lassa Virus; also: nearly all actives have a fitted effect of over 50% in size", "conditions": "Lassa virus pseudotype entry inhibition, cell reporter; activity change, negative = inhibition: at 37.9 µM (top of the series) unless noted", "values": [{"molecule": "COCCNc1oc(-c2ccccc2)nc1S(=O)(=O)c1ccc(Br)cc1", "Potency": "inconclusive: 7.94 µM [inhibitor, single point]"}, {"molecule": "COc1ccccc1/C=C/C=N/NC(=O)c1cccs1", "Potency": "inconclusive: 2.82 µM [inhibitor, single point]"}, {"molecule": "c1ccc2sc(C3CCN(Cc4nnnn4Cc4ccc5c(c4)OCO5)CC3)nc2c1", "Potency": "inconclusive: 11.2 µM [inhibitor, partial curve, poor fit]"}, {"molecule": "COc1ccc2oc(=O)c(C(=O)NCCc3c(C)[nH]c4ccc(F)cc34)cc2c1", "Potency": "inconclusive: 10 µM [inhibitor, partial curve, poor fit]"}, {"molecule": "COc1cccc(-c2nc(S(=O)(=O)c3ccc(Cl)cc3)c(NCc3ccccc3)o2)c1", "Potency": "inconclusive: 12.6 µM [inhibitor, single point]"}, {"molecule": "CCOC(=O)c1ccc(NC(=O)CSc2nnc(CNC(=O)c3ccccc3F)o2)cc1", "Potency": "inconclusive: 29.1 µM [inhibitor, single point]"}, {"molecule": "COC(=O)c1cc(OC)c(OC)cc1NC(=O)c1c(-c2ccccc2Cl)noc1C", "Potency": "inconclusive: 14.6 µM [inhibitor, partial curve]"}, {"molecule": "COc1cccc(C(=O)Nc2cccc(OCc3cc(=O)n4c5c(sc4n3)CCCC5)c2)c1", "Potency": "inconclusive: 12.6 µM [inhibitor, partial curve, poor fit]"}, {"molecule": "O=C(Nc1ccc(OC(=O)c2ccco2)cc1)c1ccco1", "activity change, negative = inhibition": "inactive: 10.1%"}, {"molecule": "c1ccc(CCn2nnnc2CN2CCN(C3CCCC3)CC2)cc1", "Potency": "inconclusive: 12.6 µM [activator, single point]"}, {"molecule": "COC(=O)Nc1nc2ccc(Oc3ccc(NC(=O)Nc4ccccc4)cc3)cc2[nH]1", "Potency": "active: 3.15 µM"}, {"molecule": "CCNC(=S)Nc1ccc(OCc2nc3ccccc3s2)cc1", "Potency": "inconclusive: 35.5 µM [inhibitor, single point]"}, {"molecule": "COc1ccc(NC(=O)CSc2nc3ccccc3nc2N2CCC(C)CC2)cc1", "Potency": "inconclusive: 17.8 µM [inhibitor, partial curve, poor fit]"}, {"molecule": "CCC(C(=O)NC1CCCCC1)n1c2ccccc2c2nc(=O)cc(C)n21", "note": "(stereo unspecified)", "Potency": "inconclusive: 11.2 µM [inhibitor, partial curve, poor fit]"}, {"molecule": "Cc1ccc(CC2S/C(=N/N=C/c3ccco3)NC2=O)cc1", "note": "(stereo unspecified)", "Potency": "inconclusive: 6.31 µM [inhibitor, single point]"}, {"molecule": "COc1ccc(CNC(=O)CN(c2ccc(C(C)C)cc2)S(=O)(=O)c2c(C)nn(C)c2C)cc1", "Potency": "inconclusive: 3.16 µM [inhibitor, full curve]"}, {"molecule": "COc1ccc2nc(SCC(=O)Nc3ccc4c(c3)OCCO4)[nH]c2c1", "activity change, negative = inhibition": "inactive: 9.22%"}, {"molecule": "O=C1NCCCc2c1oc1ccc(O)cc21", "Potency": "inconclusive: 29.1 µM [activator, single point]"}, {"molecule": "OC(COc1ccc(OCC(O)CN2CCCCCC2)cc1)CN1CCCCCC1", "note": "(stereo unspecified)", "Potency": "inconclusive: 35.5 µM [inhibitor, single point]"}, {"molecule": "CC(=O)c1ccc(OCc2ncc(C(F)(F)F)cc2Cl)cc1", "Potency": "inconclusive: 14.1 µM [activator, single point]"}, {"molecule": "CC(C)CNC(=O)COCc1cc(-c2ccc3c(c2)OCO3)on1", "Potency": "inconclusive: 35.5 µM [activator, single point]"}, {"molecule": "CCN(CC)S(=O)(=O)c1ccc(C(=O)Nc2ccc(Cc3ccncc3)cc2)cc1", "Potency": "inconclusive: 17.8 µM [inhibitor, partial curve, poor fit]"}, {"molecule": "Cc1ccc(-c2cc(Cc3cccs3)c(=O)[nH]n2)cc1", "Potency": "inconclusive: 14.1 µM [inhibitor, partial curve, poor fit]"}, {"molecule": "COc1ccc(/C=N/Nc2nc(-c3ccc(C)cc3)c(NC(C)=O)s2)cc1", "activity change, negative = inhibition": "inactive: 10.5% [at 46.1 µM]"}, {"molecule": "O=C(CCCN1C(=O)c2cccc3cccc(c23)C1=O)N1CCN(c2ccc(F)cc2)CC1", "Potency": "inconclusive: 35.5 µM [inhibitor, single point]"}, {"molecule": "COC(=O)C1=C(C)NC(=S)NC1c1ccc(N(CCCl)CCCl)cc1Cl", "note": "(stereo unspecified)", "Potency": "inconclusive: 22.4 µM [inhibitor, partial curve, poor fit]"}, {"molecule": "Cn1cnc([N+](=O)[O-])c1S(=O)(=O)Oc1ccccc1", "Potency": "inconclusive: 22.4 µM [inhibitor, partial curve, poor fit]"}, {"molecule": "CN1N=C2c3ccccc3CCCC2C1c1ccc(F)cc1", "note": "(stereo unspecified)", "Potency": "inconclusive: 31.6 µM [inhibitor, single point]"}, {"molecule": "CCN=C1NN=C(c2cc(C)n(Cc3ccco3)c2C)CS1", "Potency": "inconclusive: 14.1 µM [inhibitor, partial curve, poor fit]"}, {"molecule": "CCN(CC)S(=O)(=O)c1ccc(N(C)CCc2ccc(OC)c(OC)c2)nc1", "activity change, negative = inhibition": "inactive: -22.4%"}, {"molecule": "COc1ccc2c(c1)-c1nc(NC(=O)c3ccc(OC)c(Br)c3)sc1CC2", "activity change, negative = inhibition": "inactive: -26.2% [at 46.1 µM]"}, {"molecule": "COc1ccc(C2C(C(=O)NCCCN3CCOCC3)c3ccccc3C(=O)N2c2ccc(OC)cc2)cc1", "note": "(stereo unspecified)", "Potency": "inconclusive: 39.8 µM [inhibitor, partial curve, poor fit]"}, {"molecule": "COc1nc(OC)nc(N2CCC(C(=O)Nc3cccc4ccccc34)CC2)n1", "activity change, negative = inhibition": "inactive: 11.4%"}, {"molecule": "CCN(CC)CCCN1CC(O)=C(c2nc3ccccc3s2)C1=N", "Potency": "inconclusive: 35.5 µM [inhibitor, single point]"}, {"molecule": "CCC(C(=O)OCc1cc(=O)n2nc(C)sc2n1)c1ccccc1", "note": "(stereo unspecified)", "Potency": "inconclusive: 8.91 µM [activator, partial curve, poor fit]"}, {"molecule": "Cc1ccc(/C=C2\\SC(=S)N(CCCC(=O)NC3CCCC3)C2=O)cc1", "Potency": "active: 1.12 µM"}, {"molecule": "CCC(C)C(=O)N1CCc2cc(-c3csc(N)n3)ccc21", "note": "(stereo unspecified)", "activity change, negative = inhibition": "inactive: -2.77%"}, {"molecule": "Cc1ccc(CN2C(=O)c3ccccc3NC23CCN(Cc2ccccc2)CC3)cc1", "Potency": "inconclusive: 35.5 µM [inhibitor, single point]"}, {"molecule": "C/C(=N\\NC(=O)Cc1ccc(O)cc1)c1cccnc1", "Potency": "inconclusive: 1.12 µM [inhibitor, full curve, poor fit]"}, {"molecule": "CCOC(=O)c1ccc(NC(=S)N2CCCC(C)C2)cc1", "note": "(stereo unspecified)", "activity change, negative = inhibition": "inactive: -17.1%"}, {"molecule": "C=CCc1cccc(C=Nc2cccn3cc(-c4ccccc4)nc23)c1O", "Potency": "inconclusive: 3.55 µM [activator, full curve, poor fit]"}]}]}
